Test results reported in paper PMC13483900.
Construct, isoform or probe ends are uncertain for at least one entry. At least one verdict was read from the data and is not stated in words by the source.

Chains of the proteins cited; added tags and fusions are not shown. Chains listed by the source or under a name are the forms on record and can include a tag or linker.
CST (CTC1-STN1-TEN1) (human), one chain, as listed by the source, chain 1 of 3: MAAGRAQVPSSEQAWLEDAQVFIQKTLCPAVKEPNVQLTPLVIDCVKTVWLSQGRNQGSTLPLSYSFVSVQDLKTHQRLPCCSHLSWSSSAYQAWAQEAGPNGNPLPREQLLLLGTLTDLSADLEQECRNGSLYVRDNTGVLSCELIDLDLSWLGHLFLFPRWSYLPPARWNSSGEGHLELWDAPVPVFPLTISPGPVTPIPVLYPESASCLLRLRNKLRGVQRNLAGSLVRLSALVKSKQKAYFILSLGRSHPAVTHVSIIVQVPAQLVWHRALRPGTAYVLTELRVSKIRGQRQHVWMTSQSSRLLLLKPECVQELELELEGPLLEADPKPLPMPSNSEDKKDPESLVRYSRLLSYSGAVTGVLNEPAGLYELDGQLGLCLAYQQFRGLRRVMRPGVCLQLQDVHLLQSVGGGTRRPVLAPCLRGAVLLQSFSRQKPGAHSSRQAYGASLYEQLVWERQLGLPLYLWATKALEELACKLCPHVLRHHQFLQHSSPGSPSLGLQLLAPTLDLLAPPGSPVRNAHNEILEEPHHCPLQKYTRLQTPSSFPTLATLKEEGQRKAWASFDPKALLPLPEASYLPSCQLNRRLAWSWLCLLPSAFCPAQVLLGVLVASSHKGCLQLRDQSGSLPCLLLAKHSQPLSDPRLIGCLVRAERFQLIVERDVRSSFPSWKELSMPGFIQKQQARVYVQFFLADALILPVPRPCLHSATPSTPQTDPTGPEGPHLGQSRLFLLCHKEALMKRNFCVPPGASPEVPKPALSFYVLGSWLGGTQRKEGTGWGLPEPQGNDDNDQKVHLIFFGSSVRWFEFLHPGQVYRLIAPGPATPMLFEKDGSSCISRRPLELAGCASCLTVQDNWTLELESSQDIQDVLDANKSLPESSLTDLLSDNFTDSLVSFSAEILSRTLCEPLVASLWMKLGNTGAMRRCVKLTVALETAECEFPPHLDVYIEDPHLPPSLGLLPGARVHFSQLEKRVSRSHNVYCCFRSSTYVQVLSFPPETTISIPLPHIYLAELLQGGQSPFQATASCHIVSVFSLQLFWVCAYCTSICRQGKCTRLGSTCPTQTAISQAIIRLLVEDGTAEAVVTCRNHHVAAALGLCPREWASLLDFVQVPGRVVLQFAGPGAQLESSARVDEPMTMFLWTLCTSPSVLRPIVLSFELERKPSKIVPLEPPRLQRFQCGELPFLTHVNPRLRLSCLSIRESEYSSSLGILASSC
CST (CTC1-STN1-TEN1) (human), one chain, as listed by the source, chain 2 of 3: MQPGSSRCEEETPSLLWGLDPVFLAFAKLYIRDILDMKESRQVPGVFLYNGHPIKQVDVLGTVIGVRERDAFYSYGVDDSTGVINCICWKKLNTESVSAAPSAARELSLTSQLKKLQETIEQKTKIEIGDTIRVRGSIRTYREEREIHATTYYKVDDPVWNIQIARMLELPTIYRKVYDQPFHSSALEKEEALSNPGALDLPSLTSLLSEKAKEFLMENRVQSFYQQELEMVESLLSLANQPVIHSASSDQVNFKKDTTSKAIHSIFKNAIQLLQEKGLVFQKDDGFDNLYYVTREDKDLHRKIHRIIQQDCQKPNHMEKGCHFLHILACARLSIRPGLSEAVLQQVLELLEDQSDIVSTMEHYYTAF
CST (CTC1-STN1-TEN1) (human), one chain, as listed by the source, chain 3 of 3: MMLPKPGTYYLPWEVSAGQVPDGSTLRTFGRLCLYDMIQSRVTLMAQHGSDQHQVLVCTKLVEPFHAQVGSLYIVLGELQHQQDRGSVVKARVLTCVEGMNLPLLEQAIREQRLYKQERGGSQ
TPP1/POT1 (human), one chain, as listed by the source, chain 2 of 2: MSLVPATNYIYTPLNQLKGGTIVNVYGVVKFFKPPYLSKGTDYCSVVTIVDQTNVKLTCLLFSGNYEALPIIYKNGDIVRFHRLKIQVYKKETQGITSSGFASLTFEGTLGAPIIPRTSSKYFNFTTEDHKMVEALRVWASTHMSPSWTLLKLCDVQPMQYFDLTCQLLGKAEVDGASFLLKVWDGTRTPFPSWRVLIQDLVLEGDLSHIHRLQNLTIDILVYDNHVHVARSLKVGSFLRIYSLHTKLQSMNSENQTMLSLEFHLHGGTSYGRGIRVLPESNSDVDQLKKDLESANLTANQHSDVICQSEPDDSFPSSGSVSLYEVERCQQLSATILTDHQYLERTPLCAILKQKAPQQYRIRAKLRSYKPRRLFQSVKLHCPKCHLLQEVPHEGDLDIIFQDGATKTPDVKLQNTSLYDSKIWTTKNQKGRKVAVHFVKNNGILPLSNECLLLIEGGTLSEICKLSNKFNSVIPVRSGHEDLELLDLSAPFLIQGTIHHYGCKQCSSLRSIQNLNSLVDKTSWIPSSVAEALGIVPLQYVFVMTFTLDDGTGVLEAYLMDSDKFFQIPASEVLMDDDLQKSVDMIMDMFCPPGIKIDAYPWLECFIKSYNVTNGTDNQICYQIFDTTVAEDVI
TPP1/POT1 (human), one chain, as listed by the source, chain 1 of 2: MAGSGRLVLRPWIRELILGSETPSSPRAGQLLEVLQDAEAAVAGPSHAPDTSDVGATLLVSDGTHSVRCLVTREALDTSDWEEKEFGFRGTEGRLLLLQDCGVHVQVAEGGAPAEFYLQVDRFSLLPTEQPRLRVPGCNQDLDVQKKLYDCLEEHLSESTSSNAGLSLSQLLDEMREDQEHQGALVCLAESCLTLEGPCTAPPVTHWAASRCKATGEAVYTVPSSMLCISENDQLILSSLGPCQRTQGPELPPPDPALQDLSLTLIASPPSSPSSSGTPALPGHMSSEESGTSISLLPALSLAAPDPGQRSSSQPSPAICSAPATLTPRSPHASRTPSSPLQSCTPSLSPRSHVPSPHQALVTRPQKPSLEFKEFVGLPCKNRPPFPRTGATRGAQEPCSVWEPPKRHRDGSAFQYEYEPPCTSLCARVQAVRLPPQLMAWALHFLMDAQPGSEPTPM

Tests used:
[1] = test system: CST (CTC1-STN1-TEN1) (human); assay: pull-down; details: streptavidin beads, 10 mM Mg(OAc)2, CST displaces TPP1/POT1 from the ssDNA; pull-down: 25 mM HEPES-KOH pH 7.6, 80 mM K-glutamate, 10 mM Mg(OAc)2, 5% glycerol, 0.02% Tween-20, 1 mM TCEP, 0.1 mM EDTA, 15 min 37 C; recombinant protein; protein details: 3xFLAG-CTC1, 6xHis-TEN1; label: 5' biotin (streptavidin beads); single-stranded DNA
[2] = test system: TPP1/POT1 (human); assay: pull-down; details: streptavidin beads, 10 mM Mg(OAc)2, competed off by CST; pull-down: 25 mM HEPES-KOH pH 7.6, 80 mM K-glutamate, 10 mM Mg(OAc)2, 5% glycerol, 0.02% Tween-20, 1 mM TCEP, 0.1 mM EDTA, 15 min 37 C; recombinant protein; protein details: StrepII on TPP1; label: 5' biotin (streptavidin beads); single-stranded DNA

“TTAGGGTTAGGGTTAGGGCGTCTATATTCTATTGTCTC [CLB401 telomeric ssDNA, 3x TTAGGG at 5' end]”: binds [1]; binds [2].
